According to the supplement of paper PMC10849652:
Some of the results follow.

Compound: Cc1nc(Nc2ncc(C(=O)Nc3c(C)cccc3Cl)s2)cc(N2CCN(CCO)CC2)n1 [dasatinib]
Experiment: log2 fold change, soluble protein after heating vs DMSO (PISA); higher = thermal stabilisation; K562 lysate, 10 uM; active = over 0.2 and 3.5 SD of the protein, either way, in both replicates (recomputed)
Summary of the method: (§1)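 K562 pellets were dounce-homogenised in PBS pH 7.4 containing 1 mM MgCl2, and the crude extract, at 1 mg/mL protein, was exposed to 10 μM compound for 30 min. Aliquots were heated for 3 min across 48°C-58°C, pooled, brought to 0.5% NP-40 at 4°C and spun at 21,000xg for 90 min, with the supernatant taken as soluble protein. TMTpro 16plex LC-MS/MS with equalised channel sums quantified that protein. Values are log-two fold changes in thermal stability relative to solvent controls, taken from duplicates.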

log2 fold change, inactive:
PPP4R4 (UniProt Q6NUP7) 0.055
PRKCQ (UniProt Q04759) -0.111
PPP5C (UniProt P53041) 0.017
PRMT9 (UniProt Q6P2P2) 0.012
PRKAR1B (UniProt P31321) -0.044
PRKX (UniProt P51817) 0.134
PRORP (UniProt O15091) -0.044
PRNP (UniProt P04156) 0.024
PRPF19 (UniProt Q9UMS4) 0.023
PPP2R5B (UniProt Q15173) 0.018
PPP6R1 (UniProt Q9UPN7) -0.014
PPP6C isoform 3 (UniProt O00743) 0.008
PRKACA (UniProt P17612) 0.07
PRKD2 isoform 3 (UniProt Q9BZL6) 0.028
PPP1R14C (UniProt Q8TAE6) 0.105
PRG4 (UniProt Q92954) -0.028
PRMT1 (UniProt Q99873) -0.011
PROS1 (UniProt P07225) 0.037
PPP1R12B isoform 6 (UniProt O60237) -0.065
PRKCA (UniProt P17252) -0.028
PPP2CB (UniProt E5RHC1) -0.076
PPM1H (UniProt Q9ULR3) 0
PRADC1 (UniProt Q9BSG0) 0.019
PPP2R2D (UniProt Q66LE6) -0.045
PRMT7 (UniProt Q9NVM4) 0.032
PPP2R2A isoform 2 (UniProt P63151) -0.045
PPT1 (UniProt P50897) -0.071
PPP1CB (UniProt P62140) 0.02
PRPF6 (UniProt O94906) -0.036

Compound: Cc1ncc(-c2ccnc(Nc3ccc(S(C)(=O)=O)cc3)n2)n1C(C)C
Experiment: as above
Summary of the method: as §1

log2 fold change, inactive:
PPP4R4 (UniProt Q6NUP7) 0.276
PRKCQ (UniProt Q04759) -0.079
PPP1R3D (UniProt O95685) 0.129
PPP5C (UniProt P53041) 0.008
PRMT9 (UniProt Q6P2P2) -0.029
PRKAR1B (UniProt P31321) 0.016
PRKX (UniProt P51817) 0.006
PRORP (UniProt O15091) 0.029
PRNP (UniProt P04156) 0.022
PRPF19 (UniProt Q9UMS4) -0.02
PRKD3 (UniProt O94806) -0.03
PPP6R1 (UniProt Q9UPN7) -0.018
PPP6C isoform 3 (UniProt O00743) 0.006
PRKACA (UniProt P17612) 0.068
PRKD2 isoform 3 (UniProt Q9BZL6) -0.054
PPP1R14C (UniProt Q8TAE6) -0.043
PRKDC (UniProt P78527) 0.188
PRG4 (UniProt Q92954) 0.196
PPP1R13L (UniProt Q8WUF5) 0.294
PRMT1 (UniProt Q99873) 0.006
PROS1 (UniProt P07225) -0.011
PRKCA (UniProt P17252) 0.095
PPP2CB (UniProt E5RHC1) 0.175
PRADC1 (UniProt Q9BSG0) -0.047
PPP2R2D (UniProt Q66LE6) -0.081
PRMT7 (UniProt Q9NVM4) -0.029
PPP2R2A isoform 2 (UniProt P63151) 0.009
PPT1 (UniProt P50897) -0.038
PPP1CB (UniProt P62140) -0.02
PRPF6 (UniProt O94906) -0.005
